Source: US20070248590A1, “Modulators of CDC2-like kinases (CLKS) and methods of use thereof” (Sirtris Pharmaceuticals, Inc., priority 2005, published 2007)
These are yes or no findings as the source states them, for the method shown. In cells and extracts the contact can be indirect. Some results given as binding are weak or reduced against the parent protein; the word gives no strength.

Sequences of proteins named here, by UniProt entry; tags and fusion partners are left off. Residues count along the entry.
UniProt Q96EB6, residues 2-747: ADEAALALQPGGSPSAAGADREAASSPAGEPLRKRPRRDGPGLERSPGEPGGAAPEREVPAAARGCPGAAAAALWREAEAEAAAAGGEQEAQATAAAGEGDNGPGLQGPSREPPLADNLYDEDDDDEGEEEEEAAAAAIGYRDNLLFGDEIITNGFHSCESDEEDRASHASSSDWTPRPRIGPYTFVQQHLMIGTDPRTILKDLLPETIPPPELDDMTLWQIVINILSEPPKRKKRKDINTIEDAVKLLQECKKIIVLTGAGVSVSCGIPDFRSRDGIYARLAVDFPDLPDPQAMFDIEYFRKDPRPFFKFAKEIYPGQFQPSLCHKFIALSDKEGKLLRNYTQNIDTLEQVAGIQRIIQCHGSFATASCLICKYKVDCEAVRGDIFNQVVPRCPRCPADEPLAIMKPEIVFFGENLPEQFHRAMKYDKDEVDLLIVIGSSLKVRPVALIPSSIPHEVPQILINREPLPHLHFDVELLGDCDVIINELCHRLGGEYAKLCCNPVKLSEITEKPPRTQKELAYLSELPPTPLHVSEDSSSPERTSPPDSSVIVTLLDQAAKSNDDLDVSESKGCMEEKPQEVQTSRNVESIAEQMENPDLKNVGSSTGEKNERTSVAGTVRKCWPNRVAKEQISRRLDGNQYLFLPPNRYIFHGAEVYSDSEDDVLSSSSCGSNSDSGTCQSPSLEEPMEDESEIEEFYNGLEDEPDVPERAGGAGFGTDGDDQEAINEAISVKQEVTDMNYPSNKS
UniProt O35491: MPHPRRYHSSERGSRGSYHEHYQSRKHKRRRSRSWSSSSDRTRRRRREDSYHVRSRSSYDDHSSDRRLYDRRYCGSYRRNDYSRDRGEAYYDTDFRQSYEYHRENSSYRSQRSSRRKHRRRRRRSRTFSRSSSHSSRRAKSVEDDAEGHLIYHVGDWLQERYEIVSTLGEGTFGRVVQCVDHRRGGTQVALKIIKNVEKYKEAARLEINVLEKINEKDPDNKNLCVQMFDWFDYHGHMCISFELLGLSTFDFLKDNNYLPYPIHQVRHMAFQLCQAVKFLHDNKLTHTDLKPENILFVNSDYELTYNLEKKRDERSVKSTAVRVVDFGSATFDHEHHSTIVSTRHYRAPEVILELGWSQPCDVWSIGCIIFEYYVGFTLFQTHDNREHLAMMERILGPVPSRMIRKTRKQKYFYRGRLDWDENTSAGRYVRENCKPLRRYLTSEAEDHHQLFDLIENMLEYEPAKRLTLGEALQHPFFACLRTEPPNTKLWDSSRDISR

Target: Endogenous Sirt1 of HEK 293 cells (UniProt Q96EB6)
Test: co-immunoprecipitation with M2 anti-Flag agarose from HEK 293 cells transfected with Flag-CLK2, western blot

binding: binds
Substance: Flag-CLK2 (mouse CLK2 with an N-terminal Flag tag) (from UniProt O35491 1-499) (enzyme)
